According to US20090047703A1:
Results are given in words; binding and its absence hold for the method and conditions named. Some binding calls cover weakened binding; strength is not graded here. Where a sequence is shown, tags or fusion partners need not be part of it.

Target: HERG-1a-Citrine (human)
Test: FRET between eCFP and Citrine fusions in Xenopus oocytes

B1: HERG-1a-eCFP (protein)
chain: MPVRRGHVAPQNTFLDTIIRKFEGQSRKFIIANARVENCAVIYCNDGFCELCGYSRAEVMQRPCTCDFLHGPRTQRRAAAQIAQALLGAEERKVEIAFYRKDGSCFLCLVDVVPVKNEDGAVIMFILNFEVVMEKDMVGSPAHDTNHRGPPTSWLAPGRAKTFRLKLPALLALTARESSVRSGGAGGAGAPGAVVVDVDLTPAAPSSESLALDEVTAMDNHVAGLGPAEERRALVGPGSPPRSAPGQLPSPRAHSLNPDASGSSCSLARTRSRESCASVRRASSADDIEAMRAGVLPPPPRHASTGAMHPLRSGLLNSTSDSDLVRYRTISKIPQITLNFVDLKGDPFLASPTSDREIIAPKIKERTHNVTEKVTQVLSLGADVLPEYKLQAPRIHRWTILHYSPFKAVWDWLILLLVIYTAVFTPYSAAFLLKETEEGPPATECGYACQPLAVVDLIVDIMFIVDILINFRTTYVNANEEVVSHPGRIAVHYFKGWFLIDMVAAIPFDLLIFGSGSEELIGLLKTARLLRLVRVARKLDRYSEYGAAVLFLLMCTFALIAHWLACIWYAIGNMEQPHMDSRIGWLHNLGDQIGKPYNSSGLGGPSIKDKYVTALYFTFSSLTSVGFGNVSPNTNSEKIFSICVMLIGSLMYASIFGNVSAIIQRLYSGTARYHTQMLRVREFIRFHQIPNPLRQRLEEYFQHAWSYTNGIDMNAVLKGFPECLQADICLHLNRSLLQHCKPFRGATKGCLRALAMKFKTTHAPPGDTLVHAGDLLTALYFISRGSIEILRGDVVVAILGKNDIFGEPLNLYARPGKSNGDVRALTYCDLHKIHRDDLLEVLDMYPEFSDHFWSSLEITFNLRDTNMIPGSPGSTELEGGFSRQRKRKLSFRRRTDKDTEQPGEVSALGPGRAGAGPSSRGRPGGPWGESPSSGPSSPESSEDEGPGRSSSPLRLVPFSSPRPPGEPPGGEPLMEDCEKSSDTCNPLSGAFSGVSNIFSFWGDSRGRQYQELPRCPAPTPSLLNIPLSSPGRRPRGDVESRLDALQRQLNRLETRLSADMATVLQLLQRQMTLVPPAYSAVTTPGPGPTSTSPLLPVSPLPTLTLDSLSQVSQFMACEELPPGAPELPQEGPTRRLSLPGQLGALTSQPLHRHGSDPGSMVSKGEELFTGVVPILVELDGDVNGHRFSVSGEGEGDATYGKLTLKFICTTGKLPVPWPTLVTTLTWGVQCFSRYPDHMKQHDFFKSAMPEGYVQERTIFFKDDGNYKTRAEVKFEGDTLVNRIELKGIDFKEDGNILGHKLEYNYISHNVYITADKQKNGIKAHFKIRHNIEDGSVQLADHYQQNTPIGDGPVLLPDNHYLSTQSKLSKDPNEKRDHMVLLEFVTAAGITLGMDELYK
- binding: binds
